# Measured values: the supplement of paper PMC3334620
# Over roughly 33,000 sequences, “E-score (-0.5 to 0.5)” has its median near -0.0059; the highest 2% begin near 0.26. The list shows a part of the results.
# Molecular target: T1, Cin5 (UniProt P40917)
# T1 sequence: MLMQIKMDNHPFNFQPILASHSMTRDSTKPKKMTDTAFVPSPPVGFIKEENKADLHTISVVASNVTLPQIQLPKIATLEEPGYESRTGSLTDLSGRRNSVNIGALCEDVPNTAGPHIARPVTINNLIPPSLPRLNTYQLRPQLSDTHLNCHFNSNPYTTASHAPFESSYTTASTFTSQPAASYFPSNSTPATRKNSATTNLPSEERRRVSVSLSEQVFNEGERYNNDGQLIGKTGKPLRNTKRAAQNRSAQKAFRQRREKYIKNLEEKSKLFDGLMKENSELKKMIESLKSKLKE
# Assay: PBM E-score (8-mer binding enrichment) (E-score (-0.5 to 0.5)); higher = stronger / more preferred TF binding
# Settings: protein concentration: 100 nM; construct: GST-full length
# Protocol: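 Universal 'all 10-mer' protein binding microarrays (Agilent AMADID 015681) probed with GST-tagged S. cerevisiae TFs (full-length or DBD) made by in vitro transcription/translation (PURExpress), about 100-200 nM. Bound TF was detected with fluorescent anti-GST. Each ungapped 8-mer (which stands for itself and its reverse complement) is scored by the PBM enrichment score (E-score), a modified Wilcoxon-Mann-Whitney statistic from -0.5 to +0.5, computed with the Universal PBM Analysis Suite. Scale: above 0.35 generally sequence-specific binding.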
row,Sequence,PBM E-score
1,GGGCGGCA,-0.214
2,ATTGGTGA,0.0424
3,CGTGGTGC,-0.314
4,GGATGAGA,-0.0453
5,CCACATGC,0.136
6,GAGTTCAA,-0.0274
7,ATTACACA,0.241
8,AAGATCCC,0.027
9,AGGCGATC,-0.298
10,ACCGCGAT,0.129
11,GCGCCAAC,0.0617
12,ATTAAAAC,0.185
13,CGCGGGAG,-0.107
14,TCTTCTCA,-0.0176
15,ACCAGAGT,-0.169
16,GATCCTGC,-0.081
17,AGAGTCCT,-0.195
18,TACTGCCA,0.0854
19,CCCGAAGC,-0.254
20,GACCCAGA,0.0341
21,CACTTATG,0.153
22,AGTGTACC,-0.133
23,TAGCCCGA,-0.127
24,CCGATGAA,0.0748
25,CTTTTTTC,-0.0397

# Some of the entries above, reformatted.
row | Sequence | PBM E-score
13 | CGCGGGAG | -0.107
14 | TCTTCTCA | -0.0176
15 | ACCAGAGT | -0.169
16 | GATCCTGC | -0.081
17 | AGAGTCCT | -0.195
18 | TACTGCCA | 0.0854

# Later entries:

row,Sequence,PBM E-score
1,CTGGTTCC,-0.0469
2,GCCGGCGC,-0.0705
3,ACTACGAT,0.0126
4,CAGGAGCC,-0.288
5,AGTGCGCA,0.0152
6,ATGCGCCG,-0.0171
7,AGGTTGGC,-0.141
8,GTGGCACA,-0.0897
9,ACACCTTA,0.0191
10,ATGCGCTC,0.0224
11,TGATTCCA,-0.0756
12,AATGCAGG,0.0785
13,ACATAAGA,0.3
14,ATTGTCGA,0.0644
15,CACATGTC,-0.13
16,ATCACGAC,0.0257
17,AACAATAG,0.0198
18,CTGATCAG,0.135
19,CGTATCAA,0.00249
20,GCACTTGA,0.0303
21,AGATTCTC,0.0336
22,CAATTCCG,0.107
23,GACAGACC,-0.0458
24,AGATGCAA,0.155
25,AACAGCAG,-0.00479

row,Sequence,PBM E-score
1,AACAGACA,0.32
2,ATGGGCGA,-0.0766
3,ACTATGAA,0.176
4,CGCAGCTC,-0.138
5,ATGGCAGG,0.0882
6,GTCCGCAA,0.0417
7,GGAGTCAC,-0.231
8,GCCTTTCA,-0.149
9,AGACAAGG,-0.268
10,CGGCAGCA,-0.107
11,TCGTGGCA,0.106
12,CGACTTCC,-0.215
13,GCGCTTAA,0.049
14,AAATACTC,0.0699
15,GCGTCTAA,-0.131
16,AGGTCGCG,-0.101
17,CGAGAGGC,-0.303
18,ACCTACCA,-0.0831
19,CGCTAGAA,0.0266
20,ATGGCGGG,0.132
21,ACTTATCC,0.0579
22,AGTTGAGG,-0.0408
23,GCCTGGAC,-0.275
24,AAGGTTTC,0.122
25,ACCTGCTA,-0.0196

row,Sequence,PBM E-score
1,GAGCTTGA,-0.239
2,CGGAACCC,0.0794
3,ATTGAATC,-0.0743
4,AGAGAAGG,-0.149
5,AGACTAAG,-0.0759
6,ATTTCACG,0.00529
7,CCATAACG,0.0357
8,GGAAAATA,0.166
9,GAGCCTGA,-0.0811
10,AACGTCTA,-0.0897
11,GAAGGTTA,-0.0371
12,GCCACTGA,-0.00298
13,CCCTTGAG,-0.188
14,ATAACTTC,0.113
15,AAGGAGGA,-0.146
16,CATTTGTC,0.0707
17,GTAGAGGA,-0.239
18,GCCAGAGA,-0.139
19,CATGAGGG,-0.105
20,ACCCTCGG,-0.295
21,CATACTGA,0.155
22,GACATACA,0.314
23,ACTAACTG,0.179
24,AACGCCGT,-0.148
25,AATCAGCG,0.192

row,Sequence,PBM E-score
1,GCTGTATA,0.0522
2,ACACTGGA,0.133
3,AAATTCTC,-0.0624
4,GCATGGGA,-0.152
5,GATCCCAA,-0.0221
6,CGACCTGA,-0.0157
7,CCTATTGC,-0.135
8,AAATACCT,0.0632
9,CAGCTAGA,-0.0205
10,AACGTTTG,-0.0719
11,CATAGAAC,-0.0417
12,GTGCTCTA,0.0613
13,AGATAACA,0.115
14,CCCGCGAA,0.101
15,ATCGTAAG,0.159
16,CGTGCATC,-0.128
17,ACTGCCGC,0.0471
18,AGTAAAAC,-0.0196
19,GAAGATCC,-0.178
20,CTTCCAAA,0.0243
21,CGGAGCTC,-0.269
22,AACAAATG,0.0424
23,CCTTTTAC,0.0651
24,GGACATAC,0.124
25,ACTTAGAT,0.136

row,Sequence,PBM E-score
1,ATGCAGAC,0.0278
2,TCAGGCAA,-0.0467
3,CCCATGAA,-0.0423
4,AGTGATAA,0.087
5,AAAGCAAG,0.187
6,AAGATTCG,0.0694
7,GCTTAAGA,-0.0654
8,AGCTAACG,0.0338
9,CGTTTGCA,0.0764
10,CAATGCTA,0.0669
11,CCGCTCGC,-0.0515
12,AGGCCAAA,-0.0513
13,CAAGGAAC,-0.0303
14,CTGTCGAA,-0.0695
15,GCAGGACA,0.00773
16,CCTCGCTA,-0.279
17,CTGTTACA,0.00053
18,ATATAAGA,0.301
19,AAATAAGA,0.161
20,ACCCGTTA,0.0299
21,CTCAAGGA,-0.0336
22,AAGCGCTG,0.0792
23,ACCCATAG,-0.127
24,TCAGCCGA,-0.0147
25,AAGACCTC,-0.24

row,Sequence,PBM E-score
1,CCATAGCA,-0.0162
2,ACCTCGTA,0.128
3,CGCCACAC,-0.0576
4,ATAAAACA,0.0734
5,TAGGGGCA,-0.00465
6,CATACTCA,0.15
7,CGGATGAA,0.208
8,CTTTAAAC,-0.0657
9,GCTCTTCA,-0.157
10,AACCCGGC,-0.103
11,AGTCGGGA,-0.203
12,GACTGCGC,-0.114
13,ATCCATCG,-0.0198
14,ATGTAGAG,-0.0421
15,CCCTCTAG,-0.244
16,CAAAATTG,0.0697
17,CACAATGA,0.125
18,CAGCAGCA,-0.0492
19,AAGTCTGG,-0.0526
20,ATCATATG,0.169
21,AGTCTGCA,-0.211
22,GACTCGCA,-0.00361
